PubChem BioAssay AID1224830 – NIAID | 2016
In all, the deposit lists about 18,000 reagents; below is a part drawn at random. About 2,900 of them (16%) count as active. 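Calls are made per well; low scores hint the gene aids the LPS response, high scores that it dampens it.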 Unmarked entries are inactive. Repeated entries: four replicate wells of each siRNA pool. Reagent sequences are not shown.

- Test: 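Genes whose knock-down alters the TNF-alpha reporter response to LPS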 (primary screen)
- System: human THP-1 monocytic leukaemia cells, TNF dual-luciferase reporter clone, PMA-differentiated to macrophage-like cells
- Reagents: siRNA pool against human genes, 50 nM
- Timing: LPS for 4 h, given about 3 days after siRNA transfection
- Challenge: bacterial LPS (TLR4 ligand), 10 ng/ml
- Measured: 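Ratio of firefly to renilla light, scaled to the plate median and expressed as a robust z-score per replicate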
- Scale: TNF reporter robust z-score: higher = stronger TNF reporter response to LPS
- Active means: 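a well is active when its z-score exceeds 2.8 or falls below -1.5; control wells carry no call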

Target gene | TNF reporter robust z-score
UBIAD1 | -1.49
UBIAD1 | -0.21
UBIAD1 | -0.85
UBIAD1 | -0.09
RRP1 | -1.9 (active)
RRP1 | -0.44
RRP1 | -1.6 (active)
RRP1 | -1.19
EMC10 | 0.43
EMC10 | 0.29
EMC10 | -0.11
EMC10 | 0.88
SMARCB1 | -1.41
SMARCB1 | -0.6
SMARCB1 | -0.95
SMARCB1 | -0.12
ASIC5 | -0.49
ASIC5 | -1.36
ASIC5 | 0.12
ASIC5 | 0.1
PUS7L | 3.06 (active)
PUS7L | 3.82 (active)
PUS7L | 2.75
PUS7L | -0.89
H1-6 | 1.07
H1-6 | 0.49
H1-6 | 1.03
H1-6 | 1.06

Next part (3 carried over from the part before).
Target gene | TNF reporter robust z-score
H1-6 | 0.49
H1-6 | 1.03
H1-6 | 1.06
SLURP1 | 0.52
SLURP1 | 0.91
SLURP1 | 0.68
SLURP1 | 1.47
SLC25A53 | -0.71
SLC25A53 | -0.9
SLC25A53 | -0.25
SLC25A53 | -1.02
TAF6L | -0.49
TAF6L | -0.16
TAF6L | -0.26
TAF6L | 0.04
TYW5 | 0.21
TYW5 | 0.87
TYW5 | 0.76
TYW5 | 1.49
FRMD6 | 1.68
FRMD6 | -1.02
FRMD6 | 1.28
FRMD6 | 0.78
CRYBG3 | -0.51
CRYBG3 | -0.65
CRYBG3 | 0.41
CRYBG3 | 0.9
IL3RA | -1.79 (active)
IL3RA | -1.67 (active)
IL3RA | -2 (active)
IL3RA | -1.9 (active)
FAM151B | -0.64
FAM151B | -0.99
FAM151B | -0.78
FAM151B | 0.01
ZNF483 | 2.08
ZNF483 | 1.25
ZNF483 | 0.76
ZNF483 | 3.81 (active)
PIGK | -0.45
PIGK | -0.41
PIGK | -0.93
PIGK | 0.44
NAV1 | -0.64
NAV1 | -0.01
NAV1 | -0.53
NAV1 | 0.07
RS1 | -0.64
RS1 | -0.27
RS1 | -0.45
RS1 | -0.59
